According to patent publication US12589101B2 (Regeneron Pharmaceuticals, Inc., priority 2017, dated 2026):

Assay: general procedure: solution-phase peptide synthesis; HOBt/DIPEA
Details: conjugation step

{4-[(2S)-2-[(2S)-2-[1-(4-{2-Azatricyclo[10.4.0.0^4,9]hexadeca-1(12),4(9),5,7,13,15-hexaen-10-yn-2-yl}-4-oxobutanamido)-3,6,9,12-tetraoxapentadecan-15-amido]-3-methylbutanamido]-5-(carbamoylamino)pentanamido]phenyl}methyl N-[(1S)-1-{[(1S)-1-{[(3R,4S,5S)-1-[(2S)-2-[(1R,2R)-2-{[(1S,2R)-1-hydroxy-1-phenylpropan-2-yl]carbamoyl}-1-methoxy-2-methylethyl]pyrrolidin-1-yl]-3-methoxy-5-methyl-1-oxoheptan-4-yl](methyl)carbamoyl}-2-methylpropyl]carbamoyl}-2-methylpropyl]-N-methylcarbamate
final HPLC purity: 98%
